From article PMC7819943, “Rice protein-binding microarrays: a tool to detect cis-acting elements near promoter regions in rice” come the findings set out here.

Protein sequences, listed by entry. Tags and fused reporters are not part of them.
UniProt Q0JBA9, entry or part of it: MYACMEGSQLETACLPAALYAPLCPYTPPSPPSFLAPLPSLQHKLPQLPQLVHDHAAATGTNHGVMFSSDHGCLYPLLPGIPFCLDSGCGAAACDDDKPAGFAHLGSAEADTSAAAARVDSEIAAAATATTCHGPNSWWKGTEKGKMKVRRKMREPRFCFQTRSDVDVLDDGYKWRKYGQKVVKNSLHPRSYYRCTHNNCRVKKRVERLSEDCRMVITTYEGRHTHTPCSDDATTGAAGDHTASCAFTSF

The other results are listed elsewhere or left out.

This assay deals with OsWRKY34 (Oryza sativa, UniProt Q0JBA9 1-250). Kind of assay: protein-binding microarray (RPBM); PBS, 2% BSA, 51.3 ng/ul salmon testes DNA, 50 uM zinc acetate, 200 nM TF, 25 C, 1 h; high values mean tight binding. The following applies: protein: recombinant; tags: N-terminal polyhistidine and DsRed monomer fusion (pET32a); label: CyDye5-dUTP incorporated in the synthesized complementary strand; 3' TTTTT single-stranded linker to array surface; dsDNA, one strand shown. The procedure, abridged: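 Binding signal is reported as fluorescence intensity per feature (arbitrary units) from an Axon 4000B scanner. Incubation used 200 nM of each Ni–NTA-purified, N-terminally polyhistidine- and DsRed-fused transcription factor from E. coli BL21-CodonPlus on a double-stranded custom Agilent array for 1 h at 25 °C, with 50 µM zinc acetate in the buffer, followed by washing.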
In the case of “CTCTCTCCGTGCCTCGCTAGCTTTTCATGGGGACCCATAGCGGAGTCACCTAGTGCAG”, the binding signal is 9780 fluorescence intensity (a.u.).

As for “CTTCTGTTCTGTACAGTTTCTCTCACTTCTTCTATAATATCGGAGTCACCTAGTGCAG”, the binding signal is 10400 fluorescence intensity (a.u.).

Turning to “GCGCCCATCTGCTTATGGTCCACACGCGCCGCGGCGCCAGCGGAGTCACCTAGTGCAG”, the binding signal is 9380 fluorescence intensity (a.u.).

Take “TCGCTATCTAATCAACCACTATTCCTTTCTTTCTTCGCTTCGGAGTCACCTAGTGCAG”: the binding signal was 10900 fluorescence intensity (a.u.).

On to “CCATACCCGCGAAAAACGCTATTCAATTAGCCTATATAATCGGAGTCACCTAGTGCAG”, for which the binding signal is 10400 fluorescence intensity (a.u.).

Take “GTGTATTTGTGAGGTTTTTTTTGACCGGTTTTCCTTCAAACGGAGTCACCTAGTGCAG”: the binding signal was 9470 fluorescence intensity (a.u.).

Take “TGCACACTCCAGCCGATGCCTTCGCAGCCGACGCATACTCCGGAGTCACCTAGTGCAG”: the binding signal was 10000 fluorescence intensity (a.u.).

Regarding “TTATGTGTGCGTGGGCCATTAATTTACACTTGCATGTCAGCGGAGTCACCTAGTGCAG”, the binding signal is 9290 fluorescence intensity (a.u.).

Regarding “TTCATTTTCTTTAACTCTTGGTTCTGTATATATCTCTTTCCGGAGTCACCTAGTGCAG”, the binding signal was 8880 fluorescence intensity (a.u.).

With “GTCACTACTACACTTCATTACGGTCCGCTTACTCTCCTCTCGGAGTCACCTAGTGCAG”, the binding signal is 8260 fluorescence intensity (a.u.).

On to “TTTCTATATGGACTCTGCTTTTTCTTTTTCTCTGATTAATCGGAGTCACCTAGTGCAG”, for which the binding signal was 10400 fluorescence intensity (a.u.).

As to “TGTGTGCCTGTTGTCTCATTTGATCTGCCATTTCAGCGCACGGAGTCACCTAGTGCAG”, the binding signal was 10700 fluorescence intensity (a.u.).

Regarding “ATGTGTCGCCGCGTCATCGTGCCTATCTGATCTTTCTTCACGGAGTCACCTAGTGCAG”, the binding signal is 11100 fluorescence intensity (a.u.).

With “CATCTCCGCCTTCGTGTTCCTCTTCTTCTCTCCTCCTCCCCGGAGTCACCTAGTGCAG”, the binding signal is 9050 fluorescence intensity (a.u.).

With “CACCCATCTACTCTGTCTAATCGAATCAACATGTTTTCATCGGAGTCACCTAGTGCAG”, the binding signal is 8440 fluorescence intensity (a.u.).

Take “CTCTCTCTCTCTATCTTCACCTCGCATCGTTGGAGATATGCGGAGTCACCTAGTGCAG”: the binding signal is 9580 fluorescence intensity (a.u.).

For “CCCGATCAACCACTCGCCATCCGTTTGTTTGGCGCCGAATCGGAGTCACCTAGTGCAG”, the binding signal was 8940 fluorescence intensity (a.u.).

Regarding “CGCCGATCCGGTCCATACTCGCTCCGTACGATCGTACCTCCGGAGTCACCTAGTGCAG”, the binding signal is 10400 fluorescence intensity (a.u.).

As to “AAGAGGTGAGAGTGGGAGGTGGTGGGGTTTATAACCGACGCGGAGTCACCTAGTGCAG”, the binding signal is 10100 fluorescence intensity (a.u.).

As for “CTCCAAGTCAATTTCTAATACAGTTGTACCCTTTCCTTAACGGAGTCACCTAGTGCAG”, the binding signal was 8100 fluorescence intensity (a.u.).

On to “TACCACCACTCGTCGTCCCGTCGTCCCTTGCAGCTTTGCTCGGAGTCACCTAGTGCAG”, for which the binding signal was 10800 fluorescence intensity (a.u.).

Consider “GGTGCTTGTTTAATCAAAGCTTGCTATTTGGTACTTTTTTCGGAGTCACCTAGTGCAG”, for which the binding signal was 8940 fluorescence intensity (a.u.).

As for “CCTCCCGCCGCCTCTCCGCCCGTCCACCGCGCCGCCGCCGCGGAGTCACCTAGTGCAG”, the binding signal is 8070 fluorescence intensity (a.u.).

In the case of “TACGTTGGGCTATCCGAAATCTCATCTCTCGCCCAATCCGCGGAGTCACCTAGTGCAG”, the binding signal is 11100 fluorescence intensity (a.u.).

In the case of “ATCATTGTCTGACATTTCTATGGCCCGGTCACTGTTCCATCGGAGTCACCTAGTGCAG”, the binding signal was 9500 fluorescence intensity (a.u.).

With “AACGACAGAGGTCGCACATCTCGCATATTCTTGTTCTTTTCGGAGTCACCTAGTGCAG”, the binding signal was 8830 fluorescence intensity (a.u.).

On to “CGCCCCTTGCCGCTTGCCGCCTCGCCCGCTCGAGCTCATCCGGAGTCACCTAGTGCAG”, for which the binding signal was 8390 fluorescence intensity (a.u.).

On to “AAGCGTAACATCCTACTCCTGTATTTGGTTGATTCTGTGACGGAGTCACCTAGTGCAG”, for which the binding signal was 8950 fluorescence intensity (a.u.).

With “CCGTCTCCACCTCCACCGCGCCGGCGCCGTCCTTCACCGCCGGAGTCACCTAGTGCAG”, the binding signal is 8530 fluorescence intensity (a.u.).

Regarding “TGCTTGGATTGAGGGATTGATTGATTTCTTCTCTGAACTTCGGAGTCACCTAGTGCAG”, the binding signal was 10400 fluorescence intensity (a.u.).

On to “TGGTCCTGTTTATTTTAACACCTTTCCCGATTTTTCTGTACGGAGTCACCTAGTGCAG”, for which the binding signal is 9800 fluorescence intensity (a.u.).

As for “CCTACCACCCATACACAATTGTCTTTCTTTCAACTTGCCGCGGAGTCACCTAGTGCAG”, the binding signal was 9840 fluorescence intensity (a.u.).

With “TTTGCTCCACACCACACAACACACATTGTACGGCGTTGCTCGGAGTCACCTAGTGCAG”, the binding signal is 8210 fluorescence intensity (a.u.).

As for “GCTTCCATCCTTCCAACGAATCCACGCCGTCCATTCGCCACGGAGTCACCTAGTGCAG”, the binding signal is 12800 fluorescence intensity (a.u.).

As for “GTTCATTTCCTTGGGGTTTAATTCTTGGTTGCCAGCGAGCCGGAGTCACCTAGTGCAG”, the binding signal was 9620 fluorescence intensity (a.u.).

In the case of “CCACTATCTACCTGCTTCATCAGCTTCACAAGTTCTGTTCCGGAGTCACCTAGTGCAG”, the binding signal was 11500 fluorescence intensity (a.u.).

Consider “GTGGTAGTGAATTTGCCATCCAACCTACTTCTATTAAAAGCGGAGTCACCTAGTGCAG”, for which the binding signal is 8430 fluorescence intensity (a.u.).

For the sequence “GCCCCGTCCATTTCCCGTCCACTTGACACTGATGCTTCGCCGGAGTCACCTAGTGCAG”, the binding signal was 15000 fluorescence intensity (a.u.).

For “CGCGTCCTTTGGCCTCGTCTCACTCCATTCTCATTTCCCACGGAGTCACCTAGTGCAG”, the binding signal is 10600 fluorescence intensity (a.u.).

As to “CTGCTAATCACTCACGTATAGTTCGTACTTCATTTCTTCTCGGAGTCACCTAGTGCAG”, the binding signal is 8130 fluorescence intensity (a.u.).

For the sequence “CTCCCCAACCCAACCCAAGCCTATCTCACAAACCCGCGCGCGGAGTCACCTAGTGCAG”, the binding signal is 8160 fluorescence intensity (a.u.).

As to “ATGCCCTAGTATATGTTGTTGCCTTTCTGTTTCAGTAGTCCGGAGTCACCTAGTGCAG”, the binding signal is 8470 fluorescence intensity (a.u.).

As to “CTGAGTTTTCGTGTCCAACTTTTTGACTGTCCGTCTTATACGGAGTCACCTAGTGCAG”, the binding signal was 8880 fluorescence intensity (a.u.).

Consider “TCGCTTTTTACTTTTTATTTTTTTACACATCCGACTCAAACGGAGTCACCTAGTGCAG”, for which the binding signal is 8260 fluorescence intensity (a.u.).

Consider “TACAACTTTATTTTTGGCAACTTTTTCATATGAGTTTATTCGGAGTCACCTAGTGCAG”, for which the binding signal was 11100 fluorescence intensity (a.u.).

For the sequence “GTCCACTAATCTTCCAACCACGAGGAGCTACCAACCCACTCGGAGTCACCTAGTGCAG”, the binding signal was 10700 fluorescence intensity (a.u.).

On to “ATCCAATTTCTTACCCCGTTCGACTCCACTCGACTCGACCCGGAGTCACCTAGTGCAG”, for which the binding signal was 10200 fluorescence intensity (a.u.).

On to “TCTTGATCACAACATACACTTACCTCATTGGCACCTAGACCGGAGTCACCTAGTGCAG”, for which the binding signal was 8160 fluorescence intensity (a.u.).

Turning to “CTGGCACGCCCGCATCTCGTTAACCTTTGGACCTGCACTGCGGAGTCACCTAGTGCAG”, the binding signal is 8570 fluorescence intensity (a.u.).

On to “GGTCGACGTGGCGACGCCTTTTTGATGGTTTTTTTTTTCCCGGAGTCACCTAGTGCAG”, for which the binding signal is 9000 fluorescence intensity (a.u.).

As for “CGTAGCCTCCGCTCCGCCGCCGCGCTTCGCTGCCTTCGCTCGGAGTCACCTAGTGCAG”, the binding signal was 10300 fluorescence intensity (a.u.).

For “ATGCACGCTTTTTTTTTTCCGCCGCGTGCCCCTTCCCTTACGGAGTCACCTAGTGCAG”, the binding signal was 9640 fluorescence intensity (a.u.).

In the case of “GGGATCTGAGGCGCGTTTCTTAATTTGCCTTCTCTTTGAGCGGAGTCACCTAGTGCAG”, the binding signal was 9220 fluorescence intensity (a.u.).

Take “AACTTGCTCTTACACACGCATTTATCGCACCCTTGACCGACGGAGTCACCTAGTGCAG”: the binding signal was 10500 fluorescence intensity (a.u.).
